Measurements as given in the supplement of paper PMC10849652.
Some of the results follow.

Chains of the proteins cited; added tags and fusions are not shown. Lines headed by an entry give the natural chain unless they say otherwise; changes in a name come on top.
UniProt Q9Y4C2: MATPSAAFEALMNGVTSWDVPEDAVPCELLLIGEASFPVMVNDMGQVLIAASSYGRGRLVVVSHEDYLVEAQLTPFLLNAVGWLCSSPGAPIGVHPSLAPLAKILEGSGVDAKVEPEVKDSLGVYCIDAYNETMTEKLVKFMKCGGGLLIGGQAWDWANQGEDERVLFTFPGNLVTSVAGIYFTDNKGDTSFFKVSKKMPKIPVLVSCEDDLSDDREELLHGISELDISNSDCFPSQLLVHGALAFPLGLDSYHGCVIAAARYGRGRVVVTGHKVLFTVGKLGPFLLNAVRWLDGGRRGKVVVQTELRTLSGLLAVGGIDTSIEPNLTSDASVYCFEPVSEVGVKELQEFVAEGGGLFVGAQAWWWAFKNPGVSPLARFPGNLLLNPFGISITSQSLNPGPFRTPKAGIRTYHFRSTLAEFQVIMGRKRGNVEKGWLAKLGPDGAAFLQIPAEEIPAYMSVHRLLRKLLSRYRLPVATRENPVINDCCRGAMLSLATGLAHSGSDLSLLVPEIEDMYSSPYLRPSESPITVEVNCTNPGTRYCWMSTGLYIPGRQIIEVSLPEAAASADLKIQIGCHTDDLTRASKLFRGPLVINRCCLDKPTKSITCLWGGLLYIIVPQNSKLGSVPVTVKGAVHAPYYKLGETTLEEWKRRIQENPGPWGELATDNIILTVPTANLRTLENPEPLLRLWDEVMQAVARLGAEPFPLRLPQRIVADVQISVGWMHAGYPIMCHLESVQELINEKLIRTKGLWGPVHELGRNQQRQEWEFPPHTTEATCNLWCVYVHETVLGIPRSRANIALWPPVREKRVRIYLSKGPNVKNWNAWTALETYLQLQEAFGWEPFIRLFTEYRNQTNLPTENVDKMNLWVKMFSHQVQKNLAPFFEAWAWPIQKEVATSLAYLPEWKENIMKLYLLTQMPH
UniProt Q93075: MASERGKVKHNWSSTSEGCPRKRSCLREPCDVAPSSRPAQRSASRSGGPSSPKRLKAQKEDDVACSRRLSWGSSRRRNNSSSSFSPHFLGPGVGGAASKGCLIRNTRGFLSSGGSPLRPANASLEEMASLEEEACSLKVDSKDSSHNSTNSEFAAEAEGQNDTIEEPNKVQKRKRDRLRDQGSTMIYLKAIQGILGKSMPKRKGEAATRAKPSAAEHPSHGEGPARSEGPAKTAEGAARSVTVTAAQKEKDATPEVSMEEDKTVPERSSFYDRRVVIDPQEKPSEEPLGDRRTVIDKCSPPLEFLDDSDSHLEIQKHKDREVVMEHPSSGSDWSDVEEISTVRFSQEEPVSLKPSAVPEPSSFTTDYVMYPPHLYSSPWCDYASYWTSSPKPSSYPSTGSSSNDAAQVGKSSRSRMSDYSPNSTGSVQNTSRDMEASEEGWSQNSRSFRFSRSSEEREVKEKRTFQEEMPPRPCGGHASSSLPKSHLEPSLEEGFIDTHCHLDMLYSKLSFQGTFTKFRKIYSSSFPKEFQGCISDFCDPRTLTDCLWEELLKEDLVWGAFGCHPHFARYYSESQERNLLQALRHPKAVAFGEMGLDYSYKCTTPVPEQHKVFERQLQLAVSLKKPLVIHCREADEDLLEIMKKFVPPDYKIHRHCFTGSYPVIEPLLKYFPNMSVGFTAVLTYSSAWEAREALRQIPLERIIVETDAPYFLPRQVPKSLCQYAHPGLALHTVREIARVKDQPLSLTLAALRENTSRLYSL
UniProt Q8TEA7: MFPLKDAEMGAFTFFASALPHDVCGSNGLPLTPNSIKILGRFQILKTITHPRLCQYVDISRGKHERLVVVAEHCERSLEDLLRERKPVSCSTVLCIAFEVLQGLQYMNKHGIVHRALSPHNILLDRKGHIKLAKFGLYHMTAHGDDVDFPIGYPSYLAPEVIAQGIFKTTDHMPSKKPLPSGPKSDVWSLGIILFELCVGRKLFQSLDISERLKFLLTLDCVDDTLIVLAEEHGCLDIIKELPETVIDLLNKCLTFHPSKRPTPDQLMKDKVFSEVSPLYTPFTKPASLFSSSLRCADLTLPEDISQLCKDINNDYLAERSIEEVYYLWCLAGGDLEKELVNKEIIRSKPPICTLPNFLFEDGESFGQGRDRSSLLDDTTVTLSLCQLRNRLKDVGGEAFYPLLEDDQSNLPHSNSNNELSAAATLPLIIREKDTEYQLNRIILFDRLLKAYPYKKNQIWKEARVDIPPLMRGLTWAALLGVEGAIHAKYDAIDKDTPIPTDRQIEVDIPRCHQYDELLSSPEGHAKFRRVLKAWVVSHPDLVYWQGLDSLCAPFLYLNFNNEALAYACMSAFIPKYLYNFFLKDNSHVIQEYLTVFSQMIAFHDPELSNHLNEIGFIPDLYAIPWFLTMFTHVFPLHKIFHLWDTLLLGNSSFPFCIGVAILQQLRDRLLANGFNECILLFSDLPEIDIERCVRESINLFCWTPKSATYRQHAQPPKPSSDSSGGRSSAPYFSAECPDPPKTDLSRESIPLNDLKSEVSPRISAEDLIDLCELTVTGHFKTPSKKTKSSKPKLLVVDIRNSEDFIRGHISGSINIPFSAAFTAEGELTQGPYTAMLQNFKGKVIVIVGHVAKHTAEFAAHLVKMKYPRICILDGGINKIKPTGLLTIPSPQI
UniProt Q15813: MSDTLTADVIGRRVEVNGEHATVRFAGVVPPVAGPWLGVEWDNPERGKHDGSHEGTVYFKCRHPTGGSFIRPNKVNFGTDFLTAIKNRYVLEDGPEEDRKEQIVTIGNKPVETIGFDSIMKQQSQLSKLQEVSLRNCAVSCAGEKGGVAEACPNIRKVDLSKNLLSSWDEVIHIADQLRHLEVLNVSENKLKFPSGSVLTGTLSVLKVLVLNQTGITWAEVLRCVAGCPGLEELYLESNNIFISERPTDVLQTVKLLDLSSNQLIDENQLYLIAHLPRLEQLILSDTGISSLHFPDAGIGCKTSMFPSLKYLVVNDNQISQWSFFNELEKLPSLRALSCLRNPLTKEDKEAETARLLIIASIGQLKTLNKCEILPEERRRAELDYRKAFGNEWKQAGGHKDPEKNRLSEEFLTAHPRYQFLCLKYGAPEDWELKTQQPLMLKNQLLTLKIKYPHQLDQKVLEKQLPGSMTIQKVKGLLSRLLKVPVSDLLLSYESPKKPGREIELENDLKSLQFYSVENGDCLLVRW
UniProt O60907: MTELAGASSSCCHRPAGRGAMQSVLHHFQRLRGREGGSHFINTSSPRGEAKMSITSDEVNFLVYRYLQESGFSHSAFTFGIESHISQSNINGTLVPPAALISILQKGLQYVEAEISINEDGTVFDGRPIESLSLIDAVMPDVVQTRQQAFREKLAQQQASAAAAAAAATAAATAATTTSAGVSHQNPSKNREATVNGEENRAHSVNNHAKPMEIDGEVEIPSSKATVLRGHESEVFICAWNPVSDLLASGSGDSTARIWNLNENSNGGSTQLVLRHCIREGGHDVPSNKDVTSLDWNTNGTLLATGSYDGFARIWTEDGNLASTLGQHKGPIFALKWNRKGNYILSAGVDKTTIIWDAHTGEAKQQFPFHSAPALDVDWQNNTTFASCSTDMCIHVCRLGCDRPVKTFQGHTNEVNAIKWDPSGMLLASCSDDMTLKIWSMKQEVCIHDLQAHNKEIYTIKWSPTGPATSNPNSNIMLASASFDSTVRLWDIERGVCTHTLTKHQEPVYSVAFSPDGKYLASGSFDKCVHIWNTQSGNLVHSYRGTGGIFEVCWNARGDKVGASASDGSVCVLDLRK
UniProt Q9NUJ3: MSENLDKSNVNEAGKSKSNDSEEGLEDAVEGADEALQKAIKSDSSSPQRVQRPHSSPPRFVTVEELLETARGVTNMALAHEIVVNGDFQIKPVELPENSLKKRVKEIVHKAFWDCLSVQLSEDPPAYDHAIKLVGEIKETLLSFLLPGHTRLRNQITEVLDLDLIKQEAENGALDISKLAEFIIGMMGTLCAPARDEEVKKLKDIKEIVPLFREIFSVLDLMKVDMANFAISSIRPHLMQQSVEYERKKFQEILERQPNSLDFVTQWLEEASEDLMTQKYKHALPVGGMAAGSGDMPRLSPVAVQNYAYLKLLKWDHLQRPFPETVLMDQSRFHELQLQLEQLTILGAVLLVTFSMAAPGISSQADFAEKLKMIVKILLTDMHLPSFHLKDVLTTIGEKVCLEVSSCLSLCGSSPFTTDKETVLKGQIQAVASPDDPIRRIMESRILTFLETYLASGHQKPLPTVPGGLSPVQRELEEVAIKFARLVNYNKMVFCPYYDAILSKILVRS
UniProt Q6P1N9: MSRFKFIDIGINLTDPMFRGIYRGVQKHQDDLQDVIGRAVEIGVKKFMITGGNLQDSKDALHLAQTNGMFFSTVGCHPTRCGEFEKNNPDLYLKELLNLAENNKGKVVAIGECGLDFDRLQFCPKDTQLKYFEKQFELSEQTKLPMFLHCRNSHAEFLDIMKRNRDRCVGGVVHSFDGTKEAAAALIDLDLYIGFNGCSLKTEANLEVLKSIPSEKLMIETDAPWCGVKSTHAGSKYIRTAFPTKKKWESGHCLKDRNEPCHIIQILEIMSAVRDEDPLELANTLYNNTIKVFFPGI
UniProt Q9Y4P3: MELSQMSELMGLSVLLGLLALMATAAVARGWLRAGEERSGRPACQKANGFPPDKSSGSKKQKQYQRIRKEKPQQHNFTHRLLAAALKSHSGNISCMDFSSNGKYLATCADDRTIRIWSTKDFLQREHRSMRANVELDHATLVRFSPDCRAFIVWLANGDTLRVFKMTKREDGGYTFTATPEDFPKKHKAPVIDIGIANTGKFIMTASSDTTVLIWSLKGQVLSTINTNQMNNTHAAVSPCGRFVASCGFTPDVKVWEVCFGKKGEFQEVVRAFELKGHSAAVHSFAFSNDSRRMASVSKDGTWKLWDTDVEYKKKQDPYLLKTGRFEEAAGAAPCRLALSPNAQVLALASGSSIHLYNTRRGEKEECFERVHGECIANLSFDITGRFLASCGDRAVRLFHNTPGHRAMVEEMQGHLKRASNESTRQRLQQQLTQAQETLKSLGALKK
UniProt P01137, whole entry, looked up: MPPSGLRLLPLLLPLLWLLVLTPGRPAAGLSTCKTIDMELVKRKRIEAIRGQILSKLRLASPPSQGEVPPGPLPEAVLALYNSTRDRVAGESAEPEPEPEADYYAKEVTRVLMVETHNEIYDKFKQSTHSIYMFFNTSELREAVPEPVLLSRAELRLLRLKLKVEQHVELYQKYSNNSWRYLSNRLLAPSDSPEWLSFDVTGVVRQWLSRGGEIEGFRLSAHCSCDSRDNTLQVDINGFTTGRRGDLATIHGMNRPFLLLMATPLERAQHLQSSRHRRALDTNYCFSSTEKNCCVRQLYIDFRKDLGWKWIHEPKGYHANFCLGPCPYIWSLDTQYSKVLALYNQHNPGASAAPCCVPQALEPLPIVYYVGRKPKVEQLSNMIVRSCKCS
UniProt A2RTX5: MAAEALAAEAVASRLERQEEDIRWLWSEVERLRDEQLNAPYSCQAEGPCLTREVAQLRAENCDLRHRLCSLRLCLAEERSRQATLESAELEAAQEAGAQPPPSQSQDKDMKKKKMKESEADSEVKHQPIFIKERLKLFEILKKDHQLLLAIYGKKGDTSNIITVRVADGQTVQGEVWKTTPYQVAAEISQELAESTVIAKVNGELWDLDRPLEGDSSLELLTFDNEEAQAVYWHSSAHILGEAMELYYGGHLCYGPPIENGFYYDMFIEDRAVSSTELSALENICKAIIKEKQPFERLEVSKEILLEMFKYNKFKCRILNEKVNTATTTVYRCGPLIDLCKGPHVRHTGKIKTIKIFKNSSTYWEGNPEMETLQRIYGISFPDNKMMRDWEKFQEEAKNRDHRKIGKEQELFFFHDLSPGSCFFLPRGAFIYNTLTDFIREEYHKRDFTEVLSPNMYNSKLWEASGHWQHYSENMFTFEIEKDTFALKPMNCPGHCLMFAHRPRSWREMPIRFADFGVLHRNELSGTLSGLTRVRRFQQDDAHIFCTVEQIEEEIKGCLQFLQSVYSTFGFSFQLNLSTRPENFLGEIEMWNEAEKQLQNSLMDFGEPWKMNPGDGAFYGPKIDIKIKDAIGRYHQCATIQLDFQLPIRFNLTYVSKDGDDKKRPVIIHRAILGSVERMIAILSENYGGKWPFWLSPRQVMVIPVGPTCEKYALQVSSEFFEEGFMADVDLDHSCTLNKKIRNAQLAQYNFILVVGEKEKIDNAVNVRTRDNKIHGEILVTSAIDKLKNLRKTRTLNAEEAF
UniProt P62380: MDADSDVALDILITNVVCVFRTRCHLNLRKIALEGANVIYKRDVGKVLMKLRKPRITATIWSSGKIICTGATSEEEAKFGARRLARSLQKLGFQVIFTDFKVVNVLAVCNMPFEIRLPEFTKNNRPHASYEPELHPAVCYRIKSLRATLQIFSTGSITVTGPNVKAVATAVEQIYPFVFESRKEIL

Key:
Test in all cases: log2 fold change, soluble protein after heating vs DMSO (PISA); higher = thermal stabilisation; K562 lysate, 10 uM; active = over 0.2 and 3.5 SD of the protein, either way, in both replicates (recomputed)
[1] = compound: C=CC(=O)N1CCC[C@@H](n2nc(-c3ccc(Oc4ccccc4)cc3)c3c(N)ncnc32)C1 [ibrutinib]
Summary of the method: (§1)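 K562 pellets were dounce-homogenised in PBS pH 7.4 with 1 mM MgCl2, and the crude extract at 1 mg/mL protein was treated with 10 μM compound for 30 min. Aliquots were heated for 3 min across 48°C-58°C, pooled, and brought to 0.5% NP-40 at 4°C; soluble protein was the supernatant after 21,000xg for 90 min. Soluble protein was quantified by TMTpro 16plex LC-MS/MS with channel sums equalised, and reported as log2 fold change in thermal stability against DMSO controls, with values from duplicates.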

[2] = compound: CC(=O)c1cnc2ccc(-c3cc(Cl)c(O)c(Cl)c3)nc2c1N[C@H]1CC[C@H](CN(C)C)CC1
Summary of the method: as §1

[3] = compound: CC(C)(C)Cn1c(N)nc2ccc(-c3[nH]c(C(C)(C)C)nc3-c3ccc(F)cc3)nc21 [ralimetinib]
Summary of the method: as §1

[4] = compound: CC(C)(O)CC(=O)NCCn1ccc2ncnc(Nc3ccc(Oc4cccc(C(F)(F)F)c4)c(Cl)c3)c21
Summary of the method: as §1

[5] = compound: CC(C)C1=C2N=C(C=C(N2N=C1)NCC3=CC=CC=C3)NCCCCCCN
Summary of the method: as §1

[6] = compound: CC1=C(C(CC(=O)N1)C2=CC=C(C=C2)C(F)(F)F)C(=O)NC3=C(C=C4C(=C3)C=NN4)F
Summary of the method: as §1

[7] = compound: CC1=C(C2=C(C=C1)C(=O)C3=CC=CC=C3N2CCCN)C
Summary of the method: as §1

[8] = compound: CC1=C(C=C(C=C1)NC(=O)C2=CC(=CC=C2)C(C)(C)C#N)NC3=CC4=C(C=C3)N=CN(C4=O)C
Summary of the method: as §1

[9] = compound: CC1=C(C=C(C=C1)NC(=O)C2=CC(=CC=C2)N(C)C)NC(=O)C3=CC=C(C=C3)O
Summary of the method: as §1

[10] = compound: CC1=CC=C(C=C1)SC2=C3C=C(SC3=CN=C2)C(=O)N
Summary of the method: as §1

Measured: log2 fold change

TCAF1 (UniProt Q9Y4C2)
inactive: [1] 0.03 | [2] -0.013 | [3] 0.029 | [4] -0.005 | [5] 0.002 | [6] -0.01 | [7] 0.013 | [8] -0.047 | [9] 0.047 | [10] 0.035

TBC1D2B (UniProt Q9UPU7)
inactive: [1] 0.075 | [2] -0.017 | [3] 0.008 | [4] 0.003 | [5] -0.054 | [6] 0.058 | [7] 0.006 | [8] -0.03 | [9] 0.031 | [10] 0.025

TATDN2 (UniProt Q93075)
inactive: [1] 0.008 | [2] -0.114 | [3] -0.03 | [4] -0.045 | [5] -0.092 | [6] 0.018 | [7] -0.003 | [8] -0.008 | [9] 0.032 | [10] 0.019

TAOK1 (UniProt Q7L7X3)
inactive: [1] 0.061 | [2] -0.086 | [3] -0.006 | [4] 0.006 | [5] 0.005 | [6] -0.014 | [7] 0.028 | [8] 0.015 | [9] 0.011 | [10] 0.112

TFCP2 (UniProt Q12800)
inactive: [1] -0.055 | [2] 0.054 | [3] 0.032 | [4] -0.028 | [5] 0.051 | [6] -0.026 | [7] 0 | [8] 0.059 | [9] -0.02 | [10] 0.026

TBCK (UniProt Q8TEA7)
inactive: [1] 0.075 | [2] -0.116 | [3] -0.06 | [4] 0.032 | [5] 0.184 | [6] 0.007 | [7] 0.082 | [8] -0.037 | [9] 0.096 | [10] 0.007

TBCE (UniProt Q15813)
inactive: [1] -0.027 | [2] 0.004 | [3] 0.037 | [4] 0.01 | [5] -0.004 | [6] 0.003 | [7] 0.004 | [8] -0.007 | [9] 0.025 | [10] -0.016

TASP1 (UniProt Q9H6P5)
inactive: [1] 0.005 | [2] 0.04 | [3] -0.073 | [4] -0.062 | [5] 0.028 | [6] 0.089 | [7] -0.114 | [8] 0.009 | [9] -0.012 | [10] 0.067

TBL1X (UniProt O60907)
inactive: [1] 0.052 | [2] 0.035 | [3] 0.045 | [4] 0.036 | [5] 0.001 | [6] 0.018 | [7] 0.075 | [8] -0.066 | [9] 0.016 | [10] -0.004

TCP11L1 (UniProt Q9NUJ3)
inactive: [1] 0.026 | [2] -0.033 | [3] -0.093 | [4] -0.061 | [5] -0.045 | [6] -0.032 | [7] -0.052 | [8] -0.008 | [9] 0.02 | [10] -0.008

TBC1D23 (UniProt Q9NUY8)
inactive: [1] 0.034 | [2] 0.002 | [3] 0.004 | [4] -0.021 | [5] 0.03 | [6] 0.032 | [7] -0.05 | [8] 0.014 | [9] 0.012 | [10] -0.012

TBC1D7 (UniProt Q9P0N9)
inactive: [1] -0.022 | [2] 0.047 | [3] 0.01 | [4] -0.135 | [5] -0.038 | [6] -0.038 | [7] -0.047 | [8] 0.065 | [9] 0.068 | [10] 0.067

TBC1D13 (UniProt Q9NVG8)
inactive: [1] 0.012 | [2] -0.007 | [3] 0.045 | [4] -0.024 | [5] -0.005 | [6] -0.014 | [7] -0.029 | [8] 0.011 | [9] 0 | [10] -0.003

TDRKH (UniProt Q9Y2W6)
inactive: [1] -0.028 | [2] -0.023 | [3] 0.033 | [4] -0.027 | [5] -0.02 | [6] 0.003 | [7] -0.008 | [8] -0.006 | [9] -0.005 | [10] -0.035

TARS2 (UniProt Q9BW92)
inactive: [1] -0.06 | [2] 0.051 | [3] 0.005 | [4] -0.021 | [5] 0.041 | [6] 0.008 | [7] 0.03 | [8] 0.028 | [9] 0.035 | [10] 0.009

TAOK3 (UniProt Q9H2K8)
inactive: [1] 0.018 | [2] 0.094 | [3] 0.014 | [4] -0.025 | [5] -0.002 | [6] -0.038 | [7] -0.016 | [8] -0.024 | [9] -0.025 | [10] 0.016

TAF7 (UniProt Q15545)
inactive: [1] 0.079 | [2] -0.004 | [3] 0.021 | [4] -0.054 | [5] 0.02 | [6] 0 | [7] -0.021 | [8] 0.038 | [9] -0.014 | [10] -0.027

TATDN1 (UniProt Q6P1N9)
inactive: [1] -0.009 | [2] -0.019 | [3] -0.003 | [4] 0.019 | [5] 0.002 | [6] -0.034 | [7] -0.003 | [8] 0.004 | [9] 0.027 | [10] -0.016

TANK (UniProt Q92844)
inactive: [1] 0.042 | [2] 0.086 | [3] -0.049 | [4] -0.003 | [5] 0.044 | [6] 0.061 | [7] 0.018 | [8] 0 | [9] 0.054 | [10] 0.002

TANGO6 (UniProt Q9C0B7)
inactive: [1] -0.056 | [2] 0.039 | [3] 0.023 | [4] 0.02 | [5] -0.067 | [6] -0.028 | [7] -0.017 | [8] -0.013 | [9] -0.02 | [10] -0.011

TELO2 (UniProt Q9Y4R8)
inactive: [1] -0.023 | [2] 0 | [3] 0.019 | [4] -0.052 | [5] 0.002 | [6] 0.029 | [7] -0.015 | [8] 0.006 | [9] 0.014 | [10] 0.017

Random excerpt: 2 entries already listed
TCP11L1 (UniProt Q9NUJ3)
inactive: [1] 0.026 | [2] -0.033 | [3] -0.093 | [4] -0.061 | [5] -0.045 | [6] -0.032 | [7] -0.052 | [8] -0.008 | [9] 0.02 | [10] -0.008

TBC1D7 (UniProt Q9P0N9)
inactive: [1] -0.022 | [2] 0.047 | [3] 0.01 | [4] -0.135 | [5] -0.038 | [6] -0.038 | [7] -0.047 | [8] 0.065 | [9] 0.068 | [10] 0.067

(further entries)

TAX1BP1 (UniProt Q86VP1)
inactive: [1] 0.01 | [2] 0.05 | [3] 0.018 | [4] -0.035 | [5] -0.031 | [6] 0.019 | [7] 0.019 | [8] 0.007 | [9] -0.019 | [10] -0.018

TDRD7 (UniProt Q8NHU6)
inactive: [1] -0.004 | [2] -0.003 | [3] 0.035 | [4] -0.043 | [5] -0.026 | [6] 0.033 | [7] -0.013 | [8] 0.06 | [9] 0.012 | [10] -0.016

TBL2 (UniProt Q9Y4P3)
inactive: [1] 0.014 | [2] 0.059 | [3] 0.005 | [4] -0.001 | [5] 0 | [6] 0.045 | [7] 0.031 | [8] -0.008 | [9] 0.03 | [10] 0.05

TBC1D8B (UniProt Q0IIM8)
inactive: [1] 0.044 | [2] -0.039 | [3] -0.049 | [4] -0.017 | [5] 0.031 | [6] -0.072 | [7] 0.006 | [8] 0.016 | [9] -0.056 | [10] -0.051

TGFB1 (UniProt P01137)
inactive: [1] 0.001 | [2] -0.013 | [3] 0.012 | [4] -0.046 | [5] -0.015 | [6] 0.05 | [7] -0.035 | [8] -0.042 | [9] -0.039 | [10] -0.014

TARSL2 (UniProt A2RTX5)
inactive: [1] -0.009 | [2] -0.008 | [3] -0.011 | [4] -0.01 | [5] -0.026 | [6] -0.037 | [7] -0.037 | [8] 0.023 | [9] 0.043 | [10] 0.004

TARDBP (UniProt Q13148)
inactive: [1] -0.161 | [2] 0.052 | [3] -0.004 | [4] -0.076 | [5] 0.015 | [6] 0.019 | [7] 0.068 | [8] -0.059 | [9] 0.01 | [10] 0.019

TBPL1 (UniProt P62380)
inactive: [1] 0.049 | [2] 0.001 | [3] 0.043 | [4] -0.019 | [5] 0.051 | [6] 0.01 | [7] 0.056 | [8] -0.023 | [9] -0.028 | [10] 0.035
